This is an account of results in PMC10795372.

Sequences of proteins named here, by UniProt entry; tags and fusion partners are left off.
UniProt Q944A7: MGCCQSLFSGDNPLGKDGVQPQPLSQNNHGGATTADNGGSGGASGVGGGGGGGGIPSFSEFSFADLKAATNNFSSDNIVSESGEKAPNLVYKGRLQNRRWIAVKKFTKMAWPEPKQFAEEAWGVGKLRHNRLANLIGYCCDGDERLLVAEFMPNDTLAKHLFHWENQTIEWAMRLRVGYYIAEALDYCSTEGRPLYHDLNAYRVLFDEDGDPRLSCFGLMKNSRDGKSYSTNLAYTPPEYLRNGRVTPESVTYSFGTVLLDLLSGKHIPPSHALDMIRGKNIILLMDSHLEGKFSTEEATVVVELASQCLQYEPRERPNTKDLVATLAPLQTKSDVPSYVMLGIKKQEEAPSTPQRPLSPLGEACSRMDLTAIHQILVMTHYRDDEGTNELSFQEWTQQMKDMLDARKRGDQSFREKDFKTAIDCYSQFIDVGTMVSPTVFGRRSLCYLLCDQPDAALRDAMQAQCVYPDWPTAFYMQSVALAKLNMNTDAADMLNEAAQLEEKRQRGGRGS
UniProt Q9FHD7: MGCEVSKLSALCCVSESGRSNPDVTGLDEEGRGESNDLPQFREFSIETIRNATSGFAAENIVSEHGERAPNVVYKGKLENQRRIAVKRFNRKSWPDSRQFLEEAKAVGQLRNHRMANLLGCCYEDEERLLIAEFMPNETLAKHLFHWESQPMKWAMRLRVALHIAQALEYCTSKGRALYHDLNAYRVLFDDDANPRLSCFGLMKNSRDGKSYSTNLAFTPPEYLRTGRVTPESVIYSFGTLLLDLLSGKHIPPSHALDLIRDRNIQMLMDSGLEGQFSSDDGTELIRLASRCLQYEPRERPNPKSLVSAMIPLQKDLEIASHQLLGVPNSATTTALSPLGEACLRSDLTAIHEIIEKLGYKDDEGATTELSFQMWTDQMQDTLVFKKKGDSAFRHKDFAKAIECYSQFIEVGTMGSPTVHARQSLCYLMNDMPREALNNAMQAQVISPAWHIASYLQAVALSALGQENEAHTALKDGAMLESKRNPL

No constants are given. Whether binding was seen depends on the method and setting. In cells and extracts the contact can be indirect. A yes stands for co-enrichment or nearness to the bait. Other partners may have been found. Where a sequence is shown, tags or fusion partners need not be part of it.

The chains are these.
T1: AT5G58150-GFP (Arabidopsis thaliana) (UniProt Q9LVN2)
T1 sequence: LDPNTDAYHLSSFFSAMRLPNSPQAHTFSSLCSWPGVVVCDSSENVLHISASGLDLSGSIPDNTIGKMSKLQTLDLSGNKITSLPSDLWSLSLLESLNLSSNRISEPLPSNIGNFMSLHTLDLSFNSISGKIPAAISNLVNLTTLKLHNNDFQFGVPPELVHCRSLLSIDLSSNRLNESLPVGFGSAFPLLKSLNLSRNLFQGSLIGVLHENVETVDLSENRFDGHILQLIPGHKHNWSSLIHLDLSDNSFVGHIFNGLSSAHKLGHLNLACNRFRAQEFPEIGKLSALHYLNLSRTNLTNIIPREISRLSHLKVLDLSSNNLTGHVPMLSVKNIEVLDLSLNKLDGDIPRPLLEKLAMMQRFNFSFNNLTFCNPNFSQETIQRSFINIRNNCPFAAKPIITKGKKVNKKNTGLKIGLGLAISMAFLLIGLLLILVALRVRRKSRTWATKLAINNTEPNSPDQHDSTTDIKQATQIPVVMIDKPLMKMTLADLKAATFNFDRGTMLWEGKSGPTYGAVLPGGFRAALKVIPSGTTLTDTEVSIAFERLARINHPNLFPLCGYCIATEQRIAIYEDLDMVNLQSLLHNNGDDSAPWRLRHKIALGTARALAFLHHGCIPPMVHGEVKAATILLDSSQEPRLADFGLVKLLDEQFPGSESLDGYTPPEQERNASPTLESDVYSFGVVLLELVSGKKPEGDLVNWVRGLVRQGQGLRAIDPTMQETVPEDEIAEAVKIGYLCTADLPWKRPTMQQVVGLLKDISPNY

B1: AT1G53430 (protein, UniProt C0LGG8 29-1038)
chain: QLLPEDEVQTLRTIFRKLQNQTVNIERTSCSDQNWNFVVESASNSPTSNITCDCTFNASSVCRVTNIQLKSFSLPGIFPPEFGNLTRLREIDLSRNFLNGTIPTTLSQIPLEILSVIGNRLSGPFPPQLGDITTLTDVNLETNLFTGPLPRNLGNLRSLKELLLSANNFTGQIPESLSNLKNLTEFRIDGNSLSGKIPDFIGNWTLLERLDLQGTSMEGPIPPSISNLTNLTELRITDLRGQAAFSFPDLRNLMKMKRLVLRNCLIRGPIPEYIGSMSELKTLDLSSNMLTGVIPDTFRNLDAFNFMFLNNNSLTGPVPQFIINSKENLDLSDNNFTQPPTLSCNQLDVNLISSYPSVTDNSVQWCLREGLPCPEDAKQSSLFINCGGSRLKIGKDTYTDDLNSRGQSTFSSVSERWGYSSSGVWLGKEDAGYLATDRFNLINGSTPEYYKTARLSPQSLKYYGLCLRRGSYKLQLHFAEIMFSNDQTFNSLGRRIFDIYVQGNLLERDFNIAERAGGVGKPFIRQIDGVQVNGSTLEIHLQWTGKGTNVIPTRGVYGPLISAITITPNFKVDTGKPLSNGAVAGIVIAACAVFGLLVLVILRLTGYLGGKEVDENEELRGLDLQTGSFTLKQIKRATNNFDPENKIGEGGFGPVYKGVLADGMTIAVKQLSSKSKQGNREFVTEIGMISALQHPNLVKLYGCCIEGKELLLVYEYLENNSLARALFGTEKQRLHLDWSTRNKICIGIAKGLAYLHEESRLKIVHRDIKATNVLLDLSLNAKISDFGLAKLNDDENTHISTRIAGTIGYMAPEYAMRGYLTDKADVYSFGVVCLEIVSGKSNTNYRPKEEFVYLLDWAYVLQEQGSLLELVDPDLGTSFSKKEAMRMLNIALLCTNPSPTLRPPMSSVVSMLEGKIKVQPPLVKREADPSGSAAMRFKALELLSQDSESQVSTYARNREQDISSSSMDGPWVDSSFSEPGKDVSLQQQEEGRSSSSSRKLLDDLTDVKIE

The target of the first experiment is T1, AT5G58150-GFP (Arabidopsis thaliana). The experiment is described as follows: affinity purification with mass spectrometry; GFP-Trap_A immunoprecipitation from 8-day-old 35S::AT5G58150-GFP seedlings fixed with 1% formaldehyde; lysis buffer 20 mM Tris HCl pH 7.5, 150 mM NaCl, 2 mM EDTA, 0.5% NP-40; on-bead digest, LC-MS/MS; 35S::GFP line as control.
Take AT1G51805: the binding entry is “binds”.
Regarding “BSK1 (Brassinosteroid-Signalling Kinase) (from UniProt Q944A7 1-512)”, the binding result is listed as “binds”.
Turning to “BSK8 (Brassinosteroid-Signalling Kinase) (from UniProt Q9FHD7 1-487)”, the binding result is on record as “binds”.
On to HA1, for which the binding entry is on record as “binds”.
Turning to HA2, the binding result is given as “binds”.
For the molecule HA3, the binding result was “binds”.

The next experiment has the same target. The description is as above. This is another data set of the same source.
In the case of B1, the binding result is recorded as “binds”.
